{"source": "the supplement of paper PMC8728848", "binders": {"B1": {"name": "RsaA-N-term (Caulobacter crescentus), P35828 (protein)", "chain": "MAYTTAQLVTAYTNANLGKAPDAATTLTLDAYATQTQTGGLSDAAALTNTLKLVNSTTAVAIQTYQFFTGVAPSAAGLDFLVDSTTNTNDLNDAYYSKFAQENRFINFSINLATGAGAGATAFAAAYTGVSYAQTVATAYDKIIGNAVATAAGVDVAAAVAFLSRQANIDYLTAFVRANTPFTAAADIDLAVKAALIGTILNAATVSGIGGYATATAAMINDLSDGALSTDNAAGVNLFTAYPSSGVSGSTLSLTTGTDTLTGTANNDTFVAGEVAGDGSGWSHPQFEKGG"}}, "test_in_all_cases": "glycan array binding signal (z-score within array); higher = stronger binding", "conditions_in_all_cases": "glycan notation: IUPAC condensed, linker removed", "key": {"Gal(a1-3)Gal": {"biological_target": "Gal(a1-3)Gal", "summary_of_the_method": "(§1)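 Glycan array data came from 3228 arrays in the Consortium for Functional Glycomics database, and only arrays with an available protein sequence were kept. Glycan names were put into IUPAC-condensed notation, and columns mapping to the same glycan were averaged. The binding signal is a within-array Z-score, averaged across arrays of one protein sequence run at different concentrations or buffers and across linkers. A negative Z-score can be read as non-binding.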"}, "Gal(a1-3)Gal(b1-3)GlcNAc": {"biological_target": "Gal(a1-3)Gal(b1-3)GlcNAc", "summary_of_the_method": "as §1"}, "[1]": {"biological_target": "Gal(a1-3)Gal(b1-3)GlcNAc(b1-2)Man", "summary_of_the_method": "as §1"}, "[2]": {"biological_target": "Gal(a1-3)Gal(b1-3)GlcNAc(b1-2)Man(a1-3)[Gal(a1-3)Gal(b1-3)GlcNAc(b1-2)Man(a1-6)]Man(b1-4)GlcNAc(b1-4)GlcNAc", "summary_of_the_method": "as §1"}, "[3]": {"biological_target": "Gal(a1-3)Gal(b1-3)GlcNAc(b1-3)GalNAc", "summary_of_the_method": "as §1"}, "[4]": {"biological_target": "Gal(a1-3)Gal(b1-3)GlcNAc(b1-6)GalNAc", "summary_of_the_method": "as §1"}, "[5]": {"biological_target": "Gal(a1-3)Gal(b1-3)[Fuc(a1-4)]GlcNAc(b1-2)Man(a1-3)[Gal(a1-3)Gal(b1-3)[Fuc(a1-4)]GlcNAc(b1-2)Man(a1-6)]Man(b1-4)GlcNAc(b1-4)GlcNAc", "summary_of_the_method": "as §1"}, "Gal(a1-3)Gal(b1-4)Glc": {"biological_target": "Gal(a1-3)Gal(b1-4)Glc", "summary_of_the_method": "as §1"}, "Gal(a1-3)Gal(b1-4)GlcNAc": {"biological_target": "Gal(a1-3)Gal(b1-4)GlcNAc", "summary_of_the_method": "as §1"}, "[6]": {"biological_target": "Gal(a1-3)Gal(b1-4)GlcNAc(b1-2)Man", "summary_of_the_method": "as §1"}, "[7]": {"biological_target": "Gal(a1-3)Gal(b1-4)GlcNAc(b1-2)Man(a1-3)[Gal(a1-3)Gal(b1-4)GlcNAc(b1-2)Man(a1-6)]Man(b1-4)GlcNAc(b1-4)GlcNAc", "summary_of_the_method": "as §1"}, "[8]": {"biological_target": "Gal(a1-3)Gal(b1-4)GlcNAc(b1-3)GalNAc", "summary_of_the_method": "as §1"}, "[9]": {"biological_target": "Gal(a1-3)Gal(b1-4)GlcNAc(b1-6)GalNAc", "summary_of_the_method": "as §1"}, "[10]": {"biological_target": "Gal(a1-3)Gal(b1-4)[Fuc(a1-3)]GlcNAc", "summary_of_the_method": "as §1"}, "[11]": {"biological_target": "Gal(a1-3)Gal(b1-4)[Fuc(a1-3)]GlcNAc(b1-2)Man(a1-3)[Gal(a1-3)Gal(b1-4)[Fuc(a1-3)]GlcNAc(b1-2)Man(a1-6)]Man(b1-4)GlcNAc(b1-4)GlcNAc", "summary_of_the_method": "as §1"}, "Gal(a1-3)GalNAc": {"biological_target": "Gal(a1-3)GalNAc", "summary_of_the_method": "as §1"}, "[12]": {"biological_target": "Gal(a1-3)[Gal(a1-4)]Gal(b1-4)GlcNAc", "summary_of_the_method": "as §1"}, "[13]": {"biological_target": "Gal(a1-4)Gal(b1-3)GlcNAc(b1-2)Man(a1-3)[Gal(a1-4)Gal(b1-3)GlcNAc(b1-2)Man(a1-6)]Man(b1-4)GlcNAc(b1-4)GlcNAc", "summary_of_the_method": "as §1"}, "Gal(a1-4)Gal(b1-4)Glc": {"biological_target": "Gal(a1-4)Gal(b1-4)Glc", "summary_of_the_method": "as §1"}, "Gal(a1-4)Gal(b1-4)GlcNAc": {"biological_target": "Gal(a1-4)Gal(b1-4)GlcNAc", "summary_of_the_method": "as §1"}, "[14]": {"biological_target": "Gal(a1-4)Gal(b1-4)GlcNAc(b1-2)Man(a1-3)[Gal(a1-4)Gal(b1-4)GlcNAc(b1-2)Man(a1-6)]Man(b1-4)GlcNAc(b1-4)GlcNAc", "summary_of_the_method": "as §1"}, "[15]": {"biological_target": "Gal(a1-4)Gal(b1-4)GlcNAc(b1-3)Gal(b1-4)Glc", "summary_of_the_method": "as §1"}, "Gal(a1-4)GlcNAc": {"biological_target": "Gal(a1-4)GlcNAc", "summary_of_the_method": "as §1"}, "Gal(a1-6)Glc": {"biological_target": "Gal(a1-6)Glc", "summary_of_the_method": "as §1"}, "Gal(b1-2)Gal": {"biological_target": "Gal(b1-2)Gal", "summary_of_the_method": "as §1"}, "Gal(b1-3)Gal": {"biological_target": "Gal(b1-3)Gal", "summary_of_the_method": "as §1"}, "Gal(b1-3)Gal(b1-4)GlcNAc": {"biological_target": "Gal(b1-3)Gal(b1-4)GlcNAc", "summary_of_the_method": "as §1"}, "Gal(b1-3)GalNAc": {"biological_target": "Gal(b1-3)GalNAc", "summary_of_the_method": "as §1"}, "[16]": {"biological_target": "Gal(b1-3)GalNAc(a1-3)[Fuc(a1-2)]Gal(b1-4)Glc", "summary_of_the_method": "as §1"}, "[17]": {"biological_target": "Gal(b1-3)GalNAc(a1-3)[Fuc(a1-2)]Gal(b1-4)GlcNAc", "summary_of_the_method": "as §1"}, "Gal(b1-3)GalNAc(b1-3)Gal": {"biological_target": "Gal(b1-3)GalNAc(b1-3)Gal", "summary_of_the_method": "as §1"}, "[18]": {"biological_target": "Gal(b1-3)GalNAc(b1-3)Gal(a1-4)Gal(b1-4)Glc", "summary_of_the_method": "as §1"}, "[19]": {"biological_target": "Gal(b1-3)GalNAc(b1-4)Gal(b1-4)Glc", "summary_of_the_method": "as §1"}, "[20]": {"biological_target": "Gal(b1-3)GalNAc(b1-4)[Neu5Ac(a2-3)]Gal(b1-4)Glc", "summary_of_the_method": "as §1"}, "Gal(b1-3)GlcNAc": {"biological_target": "Gal(b1-3)GlcNAc", "summary_of_the_method": "as §1"}, "[21]": {"biological_target": "Gal(b1-3)GlcNAc(a1-3)Gal(b1-4)GlcNAc", "summary_of_the_method": "as §1"}, "[22]": {"biological_target": "Gal(b1-3)GlcNAc(a1-6)Gal(b1-4)GlcNAc", "summary_of_the_method": "as §1"}, "Gal(b1-3)GlcNAc(b1-2)Man": {"biological_target": "Gal(b1-3)GlcNAc(b1-2)Man", "summary_of_the_method": "as §1"}}, "note": "The list shows a part of the results."}
{"binder": "B1", "values": [{"measurement": "glycan array binding signal (z-score)", "setting": "Gal(a1-3)Gal", "result": -0.71}, {"measurement": "glycan array binding signal (z-score)", "setting": "Gal(a1-3)Gal(b1-3)GlcNAc", "result": -0.108}, {"measurement": "glycan array binding signal (z-score)", "setting": "[1]", "result": 0.223}, {"measurement": "glycan array binding signal (z-score)", "setting": "[2]", "result": 0.121}, {"measurement": "glycan array binding signal (z-score)", "setting": "[3]", "result": -1.11}, {"measurement": "glycan array binding signal (z-score)", "setting": "[4]", "result": 0.171}, {"measurement": "glycan array binding signal (z-score)", "setting": "[5]", "result": -0.105}, {"measurement": "glycan array binding signal (z-score)", "setting": "Gal(a1-3)Gal(b1-4)Glc", "result": -0.288}, {"measurement": "glycan array binding signal (z-score)", "setting": "Gal(a1-3)Gal(b1-4)GlcNAc", "result": 0.324}, {"measurement": "glycan array binding signal (z-score)", "setting": "[6]", "result": 0.181}, {"measurement": "glycan array binding signal (z-score)", "setting": "[7]", "result": -0.761}, {"measurement": "glycan array binding signal (z-score)", "setting": "[8]", "result": -0.206}, {"measurement": "glycan array binding signal (z-score)", "setting": "[9]", "result": -0.692}, {"measurement": "glycan array binding signal (z-score)", "setting": "[10]", "result": 0.205}, {"measurement": "glycan array binding signal (z-score)", "setting": "[11]", "result": 0.451}, {"measurement": "glycan array binding signal (z-score)", "setting": "Gal(a1-3)GalNAc", "result": 0.296}, {"measurement": "glycan array binding signal (z-score)", "setting": "[12]", "result": 0.711}, {"measurement": "glycan array binding signal (z-score)", "setting": "[13]", "result": 1.43}, {"measurement": "glycan array binding signal (z-score)", "setting": "Gal(a1-4)Gal(b1-4)Glc", "result": -0.974}, {"measurement": "glycan array binding signal (z-score)", "setting": "Gal(a1-4)Gal(b1-4)GlcNAc", "result": -0.399}, {"measurement": "glycan array binding signal (z-score)", "setting": "[14]", "result": 0.843}, {"measurement": "glycan array binding signal (z-score)", "setting": "[15]", "result": -2.79}, {"measurement": "glycan array binding signal (z-score)", "setting": "Gal(a1-4)GlcNAc", "result": 0.59}, {"measurement": "glycan array binding signal (z-score)", "setting": "Gal(a1-6)Glc", "result": -0.066}, {"measurement": "glycan array binding signal (z-score)", "setting": "Gal(b1-2)Gal", "result": 0.282}, {"measurement": "glycan array binding signal (z-score)", "setting": "Gal(b1-3)Gal", "result": -0.381}, {"measurement": "glycan array binding signal (z-score)", "setting": "Gal(b1-3)Gal(b1-4)GlcNAc", "result": -0.156}, {"measurement": "glycan array binding signal (z-score)", "setting": "Gal(b1-3)GalNAc", "result": -0.009}, {"measurement": "glycan array binding signal (z-score)", "setting": "[16]", "result": 0.022}, {"measurement": "glycan array binding signal (z-score)", "setting": "[17]", "result": -0.152}, {"measurement": "glycan array binding signal (z-score)", "setting": "Gal(b1-3)GalNAc(b1-3)Gal", "result": 0.809}, {"measurement": "glycan array binding signal (z-score)", "setting": "[18]", "result": -0.037}, {"measurement": "glycan array binding signal (z-score)", "setting": "[19]", "result": 0.473}, {"measurement": "glycan array binding signal (z-score)", "setting": "[20]", "result": -0.359}, {"measurement": "glycan array binding signal (z-score)", "setting": "Gal(b1-3)GlcNAc", "result": -0.478}, {"measurement": "glycan array binding signal (z-score)", "setting": "[21]", "result": 0.874}, {"measurement": "glycan array binding signal (z-score)", "setting": "[22]", "result": -0.12}, {"measurement": "glycan array binding signal (z-score)", "setting": "Gal(b1-3)GlcNAc(b1-2)Man", "result": -0.66}]}
